Earlier results as cited in patent US20190022221A1 (priority 2015, published 2019).
For at least one compound, name, drawing or mass did not settle the structure.

Settings: in vivo

**Q.** For Oc1cccc(-c2c3nc(c(-c4cccc(O)c4)c4ccc([nH]4)c(-c4cccc(O)c4)c4nc(c(-c5cccc(O)c5)c5ccc2[nH]5)CC4)C=C3)c1 [Foscan, Tetra (m-hydroxyphenyl) chlorin], which tissue effect is on record?
**A.** up to 10 mm
